# Measurements: paper PMC12238259
# Amino acid sequences for entries named in this document (tags omitted). A change or cut given only in a name is not applied to a line headed by its entry. Chains listed by the source or under a name are the forms on record and can include a tag or linker.
# UniProt Q969H0: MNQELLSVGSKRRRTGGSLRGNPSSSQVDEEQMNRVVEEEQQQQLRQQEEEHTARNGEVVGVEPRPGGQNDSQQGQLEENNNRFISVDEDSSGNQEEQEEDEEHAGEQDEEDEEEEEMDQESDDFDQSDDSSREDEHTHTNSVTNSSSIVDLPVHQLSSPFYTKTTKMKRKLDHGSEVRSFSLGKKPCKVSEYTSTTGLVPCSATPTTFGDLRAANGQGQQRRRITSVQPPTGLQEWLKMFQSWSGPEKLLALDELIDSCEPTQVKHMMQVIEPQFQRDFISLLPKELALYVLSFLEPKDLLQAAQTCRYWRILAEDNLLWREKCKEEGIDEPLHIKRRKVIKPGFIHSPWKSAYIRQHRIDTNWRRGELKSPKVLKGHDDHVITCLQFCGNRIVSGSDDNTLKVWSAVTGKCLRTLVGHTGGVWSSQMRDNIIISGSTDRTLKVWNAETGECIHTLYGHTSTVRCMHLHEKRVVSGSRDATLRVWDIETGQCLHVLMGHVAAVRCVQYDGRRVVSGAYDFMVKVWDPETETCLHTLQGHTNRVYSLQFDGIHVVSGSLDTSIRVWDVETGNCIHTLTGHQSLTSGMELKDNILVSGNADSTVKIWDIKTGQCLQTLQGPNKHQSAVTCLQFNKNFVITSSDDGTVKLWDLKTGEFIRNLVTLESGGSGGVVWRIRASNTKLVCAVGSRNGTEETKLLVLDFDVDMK
# FBW7β-Myc(tag) (Q969H0, form named): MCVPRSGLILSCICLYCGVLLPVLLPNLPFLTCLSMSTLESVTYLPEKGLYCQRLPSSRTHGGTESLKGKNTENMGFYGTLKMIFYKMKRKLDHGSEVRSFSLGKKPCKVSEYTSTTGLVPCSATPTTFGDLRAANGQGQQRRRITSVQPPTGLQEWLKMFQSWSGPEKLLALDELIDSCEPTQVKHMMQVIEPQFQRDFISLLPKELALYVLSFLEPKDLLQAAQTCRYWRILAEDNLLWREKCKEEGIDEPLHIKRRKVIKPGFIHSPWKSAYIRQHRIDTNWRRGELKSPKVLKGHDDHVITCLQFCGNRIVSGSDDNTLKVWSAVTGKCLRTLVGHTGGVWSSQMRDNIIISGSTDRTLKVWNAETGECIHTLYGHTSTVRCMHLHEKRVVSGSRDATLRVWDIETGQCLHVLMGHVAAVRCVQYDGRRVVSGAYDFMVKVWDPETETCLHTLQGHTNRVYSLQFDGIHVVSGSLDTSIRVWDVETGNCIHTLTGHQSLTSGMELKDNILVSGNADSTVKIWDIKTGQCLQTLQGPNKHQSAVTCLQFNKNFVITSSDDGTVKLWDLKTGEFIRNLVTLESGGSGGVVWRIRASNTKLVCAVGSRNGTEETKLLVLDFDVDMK
# UniProt P01106: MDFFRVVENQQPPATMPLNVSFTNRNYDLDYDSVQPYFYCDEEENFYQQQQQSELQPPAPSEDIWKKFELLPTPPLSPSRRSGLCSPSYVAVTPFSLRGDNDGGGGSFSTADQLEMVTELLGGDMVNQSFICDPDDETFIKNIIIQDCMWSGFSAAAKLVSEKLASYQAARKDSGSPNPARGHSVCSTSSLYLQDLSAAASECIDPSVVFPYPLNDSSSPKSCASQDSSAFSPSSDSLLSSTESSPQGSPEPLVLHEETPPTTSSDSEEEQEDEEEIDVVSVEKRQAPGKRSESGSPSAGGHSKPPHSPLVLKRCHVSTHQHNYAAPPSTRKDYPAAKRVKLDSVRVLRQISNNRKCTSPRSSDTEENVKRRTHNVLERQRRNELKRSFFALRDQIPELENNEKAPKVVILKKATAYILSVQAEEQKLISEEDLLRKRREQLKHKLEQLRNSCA
# No constants are given. Whether binding was seen depends on the method and setting. In cells and extracts the contact can be indirect. Some entries that bind do so weakly or less than the wild type.
# Key:
# [1] = biological target: FBW7α-Myc(tag) (UniProt Q969H0); assay: co-IP; HEK293T cells co-transfected with the plasmids (PEI), MG132 20 μM (6 h in the legends, 4 h in the methods); lysis in 50 mM Tris-HCl pH 7.4, 1 mM EDTA, 1% Triton X-100, 150 mM NaCl; Anti-Flag or Anti-Myc magnetic beads, 4 °C, 4-6 h; Western blot; in the competitive IPs with or without a third overexpressed protein
# [2] = biological target: FBW7β-Myc(tag) (UniProt Q969H0); assay: as above
binding [1],binding [2],Substance
binds,,c-Myc (notag) (from UniProt P01106 1-454)
binds,binds,3×Flag-c-Myc (from UniProt P01106 1-454)
